Source: the supplement of paper PMC10849652
This is one part of the list.

Sequences of proteins named here, by UniProt entry; tags and fusion partners are left off. A change or cut given only in a name is not applied to a line headed by its entry.
UniProt Q32MK0: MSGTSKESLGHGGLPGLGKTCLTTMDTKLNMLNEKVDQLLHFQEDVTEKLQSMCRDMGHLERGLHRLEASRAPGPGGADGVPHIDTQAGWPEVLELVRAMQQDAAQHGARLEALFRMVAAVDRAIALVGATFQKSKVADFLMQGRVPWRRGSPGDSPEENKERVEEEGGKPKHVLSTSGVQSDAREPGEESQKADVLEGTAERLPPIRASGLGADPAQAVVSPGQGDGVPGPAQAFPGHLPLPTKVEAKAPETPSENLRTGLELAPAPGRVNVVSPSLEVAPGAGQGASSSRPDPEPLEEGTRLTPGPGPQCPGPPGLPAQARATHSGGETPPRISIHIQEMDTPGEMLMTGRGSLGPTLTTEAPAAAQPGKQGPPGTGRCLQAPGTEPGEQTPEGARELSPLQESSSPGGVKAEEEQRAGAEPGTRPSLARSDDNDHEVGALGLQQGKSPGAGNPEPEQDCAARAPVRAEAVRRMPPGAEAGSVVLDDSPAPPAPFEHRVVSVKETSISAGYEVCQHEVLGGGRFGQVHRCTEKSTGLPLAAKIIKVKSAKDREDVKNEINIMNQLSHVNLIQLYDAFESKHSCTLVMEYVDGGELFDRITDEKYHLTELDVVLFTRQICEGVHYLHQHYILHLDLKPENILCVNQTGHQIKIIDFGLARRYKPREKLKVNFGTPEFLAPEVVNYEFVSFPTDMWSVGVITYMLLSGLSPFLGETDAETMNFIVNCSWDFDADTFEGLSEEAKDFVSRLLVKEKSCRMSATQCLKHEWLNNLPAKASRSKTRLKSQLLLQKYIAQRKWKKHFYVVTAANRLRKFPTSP
UniProt Q92542, whole entry, looked up: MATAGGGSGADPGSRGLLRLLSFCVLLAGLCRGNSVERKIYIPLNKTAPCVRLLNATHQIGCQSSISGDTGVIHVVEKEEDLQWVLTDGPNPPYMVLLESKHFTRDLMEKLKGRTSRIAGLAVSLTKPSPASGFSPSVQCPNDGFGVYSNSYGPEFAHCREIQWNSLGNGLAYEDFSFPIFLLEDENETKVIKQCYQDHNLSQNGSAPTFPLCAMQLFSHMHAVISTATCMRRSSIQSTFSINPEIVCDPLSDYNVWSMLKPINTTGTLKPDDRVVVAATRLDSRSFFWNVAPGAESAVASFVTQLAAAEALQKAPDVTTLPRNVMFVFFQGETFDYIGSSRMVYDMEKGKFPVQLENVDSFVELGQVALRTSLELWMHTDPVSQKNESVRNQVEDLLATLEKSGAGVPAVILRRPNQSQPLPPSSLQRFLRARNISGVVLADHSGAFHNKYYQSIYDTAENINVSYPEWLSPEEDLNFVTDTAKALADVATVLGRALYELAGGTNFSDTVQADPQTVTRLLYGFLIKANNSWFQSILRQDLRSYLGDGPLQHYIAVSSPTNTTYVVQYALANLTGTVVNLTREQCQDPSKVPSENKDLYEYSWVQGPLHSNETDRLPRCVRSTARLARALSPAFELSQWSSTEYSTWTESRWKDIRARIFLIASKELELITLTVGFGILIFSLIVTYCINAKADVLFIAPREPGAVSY
UniProt Q9UJ70, whole entry, looked up: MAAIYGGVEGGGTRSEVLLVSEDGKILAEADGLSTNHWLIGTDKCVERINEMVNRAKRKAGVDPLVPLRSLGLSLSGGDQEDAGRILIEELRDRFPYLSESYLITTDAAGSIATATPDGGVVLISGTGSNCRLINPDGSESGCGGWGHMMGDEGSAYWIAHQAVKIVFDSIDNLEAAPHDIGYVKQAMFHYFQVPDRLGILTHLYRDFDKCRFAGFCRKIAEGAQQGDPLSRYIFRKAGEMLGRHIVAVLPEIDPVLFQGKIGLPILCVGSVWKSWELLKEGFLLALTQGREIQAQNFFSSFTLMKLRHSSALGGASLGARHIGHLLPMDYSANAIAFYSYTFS
UniProt Q15746, whole entry, looked up: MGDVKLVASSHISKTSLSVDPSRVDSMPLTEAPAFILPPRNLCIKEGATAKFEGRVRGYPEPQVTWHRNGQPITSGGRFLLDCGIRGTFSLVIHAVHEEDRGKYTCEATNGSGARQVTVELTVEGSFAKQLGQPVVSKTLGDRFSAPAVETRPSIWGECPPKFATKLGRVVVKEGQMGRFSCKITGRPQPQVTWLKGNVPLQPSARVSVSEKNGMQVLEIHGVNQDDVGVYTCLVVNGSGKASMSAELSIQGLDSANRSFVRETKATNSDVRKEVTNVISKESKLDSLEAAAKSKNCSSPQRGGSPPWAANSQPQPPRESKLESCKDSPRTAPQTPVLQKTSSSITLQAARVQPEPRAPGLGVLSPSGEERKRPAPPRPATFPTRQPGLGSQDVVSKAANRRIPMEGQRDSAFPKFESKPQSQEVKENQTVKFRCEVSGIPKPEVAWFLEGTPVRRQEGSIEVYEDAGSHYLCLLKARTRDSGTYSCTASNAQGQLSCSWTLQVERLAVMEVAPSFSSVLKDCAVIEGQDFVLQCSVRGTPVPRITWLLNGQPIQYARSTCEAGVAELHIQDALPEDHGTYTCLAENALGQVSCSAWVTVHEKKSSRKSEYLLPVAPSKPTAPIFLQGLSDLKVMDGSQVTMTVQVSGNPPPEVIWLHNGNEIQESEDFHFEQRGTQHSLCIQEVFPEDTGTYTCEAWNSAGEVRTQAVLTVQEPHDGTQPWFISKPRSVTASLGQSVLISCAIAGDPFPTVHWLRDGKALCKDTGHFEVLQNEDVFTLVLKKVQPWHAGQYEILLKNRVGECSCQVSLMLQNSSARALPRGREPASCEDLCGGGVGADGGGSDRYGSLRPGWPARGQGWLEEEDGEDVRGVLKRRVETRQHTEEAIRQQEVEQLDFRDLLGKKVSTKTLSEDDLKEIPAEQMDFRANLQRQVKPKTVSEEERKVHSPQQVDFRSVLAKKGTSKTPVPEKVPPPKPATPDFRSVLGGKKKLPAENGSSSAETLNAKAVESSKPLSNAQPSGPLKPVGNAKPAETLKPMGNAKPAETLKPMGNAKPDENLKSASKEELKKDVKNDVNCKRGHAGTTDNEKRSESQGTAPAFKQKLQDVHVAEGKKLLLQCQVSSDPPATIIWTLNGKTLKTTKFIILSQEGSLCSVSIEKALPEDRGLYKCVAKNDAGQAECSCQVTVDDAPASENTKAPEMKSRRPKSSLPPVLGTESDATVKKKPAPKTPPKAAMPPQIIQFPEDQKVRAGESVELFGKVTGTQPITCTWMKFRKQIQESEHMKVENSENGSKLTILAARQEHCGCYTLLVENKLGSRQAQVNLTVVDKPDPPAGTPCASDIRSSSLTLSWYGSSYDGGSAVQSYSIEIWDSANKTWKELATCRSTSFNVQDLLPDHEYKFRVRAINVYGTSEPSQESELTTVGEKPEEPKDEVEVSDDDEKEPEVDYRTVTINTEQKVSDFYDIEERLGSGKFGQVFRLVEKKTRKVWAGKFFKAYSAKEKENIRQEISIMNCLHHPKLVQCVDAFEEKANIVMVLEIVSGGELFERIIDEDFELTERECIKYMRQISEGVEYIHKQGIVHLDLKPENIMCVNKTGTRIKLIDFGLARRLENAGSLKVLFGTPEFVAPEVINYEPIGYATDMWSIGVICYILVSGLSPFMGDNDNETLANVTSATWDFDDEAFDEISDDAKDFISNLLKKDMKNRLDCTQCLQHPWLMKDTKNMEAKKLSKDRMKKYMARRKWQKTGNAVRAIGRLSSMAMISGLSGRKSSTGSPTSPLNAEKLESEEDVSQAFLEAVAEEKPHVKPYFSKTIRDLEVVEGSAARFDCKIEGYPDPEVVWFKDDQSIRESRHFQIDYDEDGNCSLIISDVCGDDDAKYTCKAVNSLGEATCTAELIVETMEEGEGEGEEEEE
UniProt Q9Y6Q9, whole entry, looked up: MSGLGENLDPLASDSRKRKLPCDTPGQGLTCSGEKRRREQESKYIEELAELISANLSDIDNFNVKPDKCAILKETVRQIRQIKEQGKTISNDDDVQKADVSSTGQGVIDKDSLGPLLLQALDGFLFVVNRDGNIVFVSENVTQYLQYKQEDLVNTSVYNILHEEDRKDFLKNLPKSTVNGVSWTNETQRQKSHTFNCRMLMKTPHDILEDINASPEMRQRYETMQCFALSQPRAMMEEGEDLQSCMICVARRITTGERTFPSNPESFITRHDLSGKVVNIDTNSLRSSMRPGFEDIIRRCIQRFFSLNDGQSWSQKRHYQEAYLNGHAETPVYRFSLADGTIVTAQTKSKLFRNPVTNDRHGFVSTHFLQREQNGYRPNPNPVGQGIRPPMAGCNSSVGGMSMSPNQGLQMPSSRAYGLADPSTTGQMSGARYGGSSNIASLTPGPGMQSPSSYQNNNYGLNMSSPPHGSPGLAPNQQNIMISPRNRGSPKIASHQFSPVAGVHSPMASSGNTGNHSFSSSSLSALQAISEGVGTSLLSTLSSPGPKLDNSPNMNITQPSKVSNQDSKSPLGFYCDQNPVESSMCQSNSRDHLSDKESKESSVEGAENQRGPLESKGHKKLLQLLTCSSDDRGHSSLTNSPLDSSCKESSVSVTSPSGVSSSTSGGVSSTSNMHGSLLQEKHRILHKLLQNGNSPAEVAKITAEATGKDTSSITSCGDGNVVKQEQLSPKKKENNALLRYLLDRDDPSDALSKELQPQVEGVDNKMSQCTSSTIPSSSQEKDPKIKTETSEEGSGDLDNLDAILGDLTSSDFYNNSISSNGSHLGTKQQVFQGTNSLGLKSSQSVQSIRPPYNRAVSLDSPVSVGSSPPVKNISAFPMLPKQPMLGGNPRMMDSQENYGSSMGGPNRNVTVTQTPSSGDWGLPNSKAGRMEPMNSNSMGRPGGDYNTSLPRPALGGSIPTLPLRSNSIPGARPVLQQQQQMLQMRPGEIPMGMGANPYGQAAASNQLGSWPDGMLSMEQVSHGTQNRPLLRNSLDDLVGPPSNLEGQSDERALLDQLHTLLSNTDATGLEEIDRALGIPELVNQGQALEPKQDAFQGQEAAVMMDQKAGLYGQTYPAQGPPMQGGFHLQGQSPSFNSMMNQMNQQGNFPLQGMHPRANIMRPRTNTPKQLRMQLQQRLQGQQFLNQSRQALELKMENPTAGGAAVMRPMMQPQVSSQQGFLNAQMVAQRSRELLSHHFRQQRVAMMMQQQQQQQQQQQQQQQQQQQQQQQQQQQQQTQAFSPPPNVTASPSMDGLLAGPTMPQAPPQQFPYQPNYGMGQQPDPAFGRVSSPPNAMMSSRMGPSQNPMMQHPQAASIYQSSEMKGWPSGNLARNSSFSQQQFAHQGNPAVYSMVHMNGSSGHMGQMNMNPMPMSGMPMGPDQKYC
UniProt P08590, whole entry, looked up: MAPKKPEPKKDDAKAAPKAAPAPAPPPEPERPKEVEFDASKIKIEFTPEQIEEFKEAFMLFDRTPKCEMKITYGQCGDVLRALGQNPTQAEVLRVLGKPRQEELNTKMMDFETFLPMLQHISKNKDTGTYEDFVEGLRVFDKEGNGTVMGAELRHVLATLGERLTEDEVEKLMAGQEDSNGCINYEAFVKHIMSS
UniProt B0I1T2: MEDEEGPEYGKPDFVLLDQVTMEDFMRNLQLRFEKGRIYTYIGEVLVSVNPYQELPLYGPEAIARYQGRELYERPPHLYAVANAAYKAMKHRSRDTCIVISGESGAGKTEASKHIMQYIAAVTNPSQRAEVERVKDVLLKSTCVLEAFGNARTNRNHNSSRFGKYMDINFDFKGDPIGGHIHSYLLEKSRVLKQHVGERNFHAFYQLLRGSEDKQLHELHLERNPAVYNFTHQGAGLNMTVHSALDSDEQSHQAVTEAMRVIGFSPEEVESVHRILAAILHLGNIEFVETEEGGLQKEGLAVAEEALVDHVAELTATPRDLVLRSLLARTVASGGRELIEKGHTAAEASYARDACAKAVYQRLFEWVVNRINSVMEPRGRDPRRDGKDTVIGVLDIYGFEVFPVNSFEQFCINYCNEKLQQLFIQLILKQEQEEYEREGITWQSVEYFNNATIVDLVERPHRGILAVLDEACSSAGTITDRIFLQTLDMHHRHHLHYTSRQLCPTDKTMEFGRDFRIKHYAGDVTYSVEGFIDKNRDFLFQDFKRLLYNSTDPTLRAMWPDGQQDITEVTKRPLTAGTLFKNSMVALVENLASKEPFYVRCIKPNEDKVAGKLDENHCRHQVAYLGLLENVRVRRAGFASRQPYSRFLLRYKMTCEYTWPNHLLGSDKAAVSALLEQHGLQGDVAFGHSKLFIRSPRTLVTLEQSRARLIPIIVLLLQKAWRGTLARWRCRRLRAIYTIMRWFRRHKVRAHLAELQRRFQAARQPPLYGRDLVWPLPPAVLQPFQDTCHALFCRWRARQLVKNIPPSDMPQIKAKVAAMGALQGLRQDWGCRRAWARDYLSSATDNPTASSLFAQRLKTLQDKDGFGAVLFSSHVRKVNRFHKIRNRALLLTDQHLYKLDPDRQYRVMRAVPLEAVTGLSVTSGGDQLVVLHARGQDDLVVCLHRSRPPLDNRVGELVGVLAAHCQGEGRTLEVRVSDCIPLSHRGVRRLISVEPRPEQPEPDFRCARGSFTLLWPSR
UniProt Q969H8: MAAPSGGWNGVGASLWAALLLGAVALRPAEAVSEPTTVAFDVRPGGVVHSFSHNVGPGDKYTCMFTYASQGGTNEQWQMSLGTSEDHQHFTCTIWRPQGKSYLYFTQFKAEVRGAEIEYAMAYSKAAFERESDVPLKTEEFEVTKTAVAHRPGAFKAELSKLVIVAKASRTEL

Experiments:
Assay in all cases: log2 fold change, soluble protein after heating vs DMSO (PISA); higher = thermal stabilisation; K562 lysate, 10 uM; active = over 0.2 and 3.5 SD of the protein, either way, in both replicates (recomputed)
nilotinib = compound: Cc1cn(-c2cc(NC(=O)c3ccc(C)c(Nc4nccc(-c5cccnc5)n4)c3)cc(C(F)(F)F)c2)cn1 [nilotinib]
Method in brief: (§1)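 K562 pellets were dounce-homogenised in PBS pH 7.4 with 1 mM MgCl2, and the crude extract at 1 mg/mL protein was treated with 10 μM compound for 30 min. Aliquots were heated for 3 min across 48°C-58°C, pooled, and brought to 0.5% NP-40 at 4°C; soluble protein was the supernatant after 21,000xg for 90 min. Soluble protein was quantified by TMTpro 16plex LC-MS/MS with channel sums equalised, and reported as log2 fold change in thermal stability against DMSO controls, with values from duplicates.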

[1] = compound: Cc1nc(Nc2n[nH]c3c2CN(C(=O)N[C@H](CN(C)C)c2ccccc2)C3(C)C)c2sccc2n1
Method in brief: as §1

dasatinib = compound: Cc1nc(Nc2ncc(C(=O)Nc3c(C)cccc3Cl)s2)cc(N2CCN(CCO)CC2)n1 [dasatinib]
Method in brief: as §1

[2] = compound: Cc1ncc(-c2ccnc(Nc3ccc(S(C)(=O)=O)cc3)n2)n1C(C)C
Method in brief: as §1

[3] = compound: Cn1cc(-c2ccc3c(c2)CCN3C(=O)Cc2cccc(C(F)(F)F)c2)c2c(N)ncnc21
Method in brief: as §1

quisinostat = compound: Cn1cc(CNCC2CCN(c3ncc(C(=O)NO)cn3)CC2)c2ccccc21 [quisinostat]
Method in brief: as §1

tipifarnib = compound: Cn1cncc1[C@@](N)(c1ccc(Cl)cc1)c1ccc2c(c1)c(-c1cccc(Cl)c1)cc(=O)n2C [tipifarnib]
Method in brief: as §1

[4] = compound: NC(=O)Nc1cc(-c2cccc(F)c2)sc1C(=O)N[C@H]1CCCNC1
Method in brief: as §1

[5] = compound: NC1(c2ccc(-c3nc4ccn5c(=O)[nH]nc5c4cc3-c3ccccc3)cc2)CCC1
Method in brief: as §1

[6] = compound: NCC(=O)Nc1ccc(-n2nc(C(F)(F)F)cc2-c2ccc3c(ccc4ccccc43)c2)cc1
Method in brief: as §1

vorinostat = compound: O=C(CCCCCCC(=O)Nc1ccccc1)NO [vorinostat]
Method in brief: as §1

silmitasertib = compound: O=C(O)c1ccc2c(c1)nc(Nc1cccc(Cl)c1)c1ccncc12 [silmitasertib]
Method in brief: as §1

[7] = compound: O=C1NC(=O)C(c2cnc3ccccn23)=C1c1cn2c3c(cc(F)cc13)CN(C(=O)N1CCCCC1)CC2
Method in brief: as §1

entospletinib = compound: c1cn2cc(-c3ccc4cn[nH]c4c3)nc(Nc3ccc(N4CCOCC4)cc3)c2n1 [entospletinib]
Method in brief: as §1

[8] = compound: NC(=O)c1cnc(N[C@@H]2CCCC[C@@H]2N)nc1Nc1cccc(-n2nccn2)c1
Method in brief: as §1

Target	log2 fold change (nilotinib)	log2 fold change [1]	log2 fold change (dasatinib)	log2 fold change [2]	log2 fold change [3]	log2 fold change (quisinostat)	log2 fold change (tipifarnib)	log2 fold change [4]	log2 fold change [5]	log2 fold change [6]	log2 fold change (vorinostat)	log2 fold change (silmitasertib)	log2 fold change [7]	log2 fold change (entospletinib)	log2 fold change [8]
NACC2 (UniProt Q96BF6)	inactive: -0.033	inactive: -0.393	inactive: 0.023	inactive: -0.086	inactive: 0.068	inactive: 0.168	inactive: -0.064	inactive: -0.142	inactive: 0.126	inactive: -0.133	inactive: -0.403	inactive: 0.171	inactive: -0.193	inactive: 0.18	–
MYLK3 (UniProt Q32MK0)	inactive: -0.18	inactive: -0.211	–	inactive: 0.262	–	inactive: -0.022	inactive: -0.076	inactive: -0.019	inactive: -0.03	–	inactive: -0.182	inactive: -0.117	inactive: 0.024	inactive: -0.109	inactive: 0.001
NCSTN (UniProt Q92542)	inactive: -0.061	inactive: -0.02	inactive: 0.03	inactive: 0.029	inactive: 0.008	inactive: -0.023	inactive: 0.03	inactive: 0.015	inactive: 0.003	inactive: 0.041	inactive: 0.13	inactive: 0.025	inactive: -0.008	inactive: -0.007	inactive: 0.047
NAA38 isoform 2 (UniProt Q9BRA0)	inactive: -0.024	inactive: 0.059	inactive: -0.014	inactive: -0.007	inactive: 0.001	inactive: 0.03	inactive: -0.03	inactive: 0.027	inactive: -0.019	inactive: -0.015	inactive: -0.088	inactive: 0.009	inactive: 0.04	inactive: -0.035	inactive: 0.016
NAA16 (UniProt Q6N069)	inactive: 0.068	inactive: -0.139	inactive: -0.042	inactive: 0.039	inactive: 0.071	–	inactive: -0.015	–	–	inactive: 0.43	–	–	–	inactive: -0.018	inactive: 0.08
MYH11 isoform 2 (UniProt P35749)	inactive: -0.072	inactive: -0.022	inactive: -0.043	inactive: -0.011	inactive: 0.014	inactive: 0.099	inactive: -0.045	inactive: -0.029	inactive: -0.032	inactive: 0.014	inactive: 0.042	inactive: 0.02	inactive: -0.005	inactive: 0.013	inactive: 0.013
MZT2B (UniProt Q6NZ67)	inactive: -0.019	inactive: 0.075	–	inactive: -0.023	–	inactive: -0.043	inactive: -0.052	inactive: 0.012	inactive: -0.003	inactive: 0.037	inactive: 0.048	inactive: -0.046	inactive: -0.037	inactive: -0.073	inactive: -0.081
NAPB (UniProt Q9H115)	inactive: 0.005	inactive: 0.073	inactive: 0.038	inactive: -0.018	inactive: 0.033	inactive: 0.017	inactive: -0.06	inactive: 0.024	inactive: 0.005	inactive: 0.14	inactive: 0.022	inactive: -0.047	inactive: 0.001	inactive: -0.016	inactive: -0.032
NAGK isoform 2 (UniProt Q9UJ70)	inactive: -0.004	inactive: -0.031	inactive: 0.035	inactive: -0.03	inactive: -0.013	inactive: 0.054	inactive: 0.001	inactive: -0.029	inactive: 0.016	inactive: -0.037	inactive: 0.186	inactive: -0.016	inactive: 0.012	inactive: 0.013	inactive: 0.005
MYLK (UniProt Q15746)	inactive: 0.138	inactive: -0.197	–	inactive: -0.108	–	inactive: 0.048	inactive: -0.035	inactive: -0.175	–	inactive: -0.312	–	–	inactive: -0.294	inactive: -0.096	inactive: 0.079
NAF1 (UniProt Q96HR8)	inactive: -0.048	inactive: 0.106	inactive: -0.011	inactive: 0.016	inactive: 0.032	inactive: 0.023	inactive: -0.036	inactive: 0.027	inactive: -0.006	inactive: 0.017	inactive: -0.042	inactive: 0.002	inactive: -0.023	inactive: -0.013	inactive: 0.036
MYL6B (UniProt P14649)	inactive: 0.001	inactive: -0.029	inactive: 0.017	inactive: -0.003	inactive: -0.014	inactive: 0.026	inactive: 0.017	inactive: -0.026	inactive: 0.001	inactive: -0.013	inactive: 0.053	inactive: -0.019	inactive: 0.016	inactive: -0.02	inactive: -0.012
NCOA3 (UniProt Q9Y6Q9)	inactive: 0.006	inactive: -0.026	inactive: -0.078	inactive: 0.063	inactive: 0.002	inactive: -0.027	inactive: -0.038	inactive: 0.053	inactive: 0.038	inactive: 0.014	inactive: -0.163	inactive: -0.033	inactive: -0.009	inactive: -0.018	inactive: -0.067
NBN (UniProt O60934)	inactive: 0.004	inactive: 0.013	inactive: -0.019	inactive: 0.037	inactive: 0.03	inactive: 0.011	inactive: 0.005	inactive: 0.046	inactive: -0.015	inactive: -0.009	active: -0.21	inactive: 0.023	inactive: -0.008	inactive: -0.005	inactive: -0.024
MYL3 (UniProt P08590)	inactive: 0.04	inactive: 0.023	–	inactive: 0.059	–	inactive: -0.02	inactive: 0.018	inactive: 0.002	inactive: -0.099	inactive: -0.106	inactive: 0.107	inactive: -0.042	inactive: 0.017	inactive: 0.008	inactive: -0.001
MYO1G (UniProt B0I1T2)	inactive: 0.076	inactive: -0.35	inactive: 0.167	inactive: 0.065	inactive: -0.061	inactive: 0.096	inactive: 0.063	inactive: -0.027	inactive: 0.156	–	inactive: -0.391	inactive: -0.109	inactive: -0.281	inactive: -0.094	inactive: -0.069
MYDGF (UniProt Q969H8)	inactive: -0.007	inactive: 0.003	inactive: 0.007	inactive: 0.014	inactive: 0.015	inactive: -0.084	inactive: 0.005	inactive: 0.012	inactive: -0.006	inactive: 0.025	inactive: 0.138	inactive: 0.011	inactive: 0	inactive: -0.001	inactive: -0.027
NCOA2 (UniProt Q15596)	inactive: -0.05	inactive: -0.148	inactive: -0.016	inactive: -0.084	inactive: -0.076	inactive: -0.023	inactive: 0.111	inactive: 0.014	inactive: 0.009	inactive: 0.133	inactive: -0.04	inactive: -0.104	inactive: 0.015	inactive: -0.042	inactive: 0.024

A stretch of the results above, for reference:
Target	log2 fold change (nilotinib)	log2 fold change [1]	log2 fold change (dasatinib)	log2 fold change [2]	log2 fold change [3]	log2 fold change (quisinostat)	log2 fold change (tipifarnib)	log2 fold change [4]	log2 fold change [5]	log2 fold change [6]	log2 fold change (vorinostat)	log2 fold change (silmitasertib)	log2 fold change [7]	log2 fold change (entospletinib)	log2 fold change [8]
MYO1G (UniProt B0I1T2)	inactive: 0.076	inactive: -0.35	inactive: 0.167	inactive: 0.065	inactive: -0.061	inactive: 0.096	inactive: 0.063	inactive: -0.027	inactive: 0.156	–	inactive: -0.391	inactive: -0.109	inactive: -0.281	inactive: -0.094	inactive: -0.069
MYDGF (UniProt Q969H8)	inactive: -0.007	inactive: 0.003	inactive: 0.007	inactive: 0.014	inactive: 0.015	inactive: -0.084	inactive: 0.005	inactive: 0.012	inactive: -0.006	inactive: 0.025	inactive: 0.138	inactive: 0.011	inactive: 0	inactive: -0.001	inactive: -0.027
